Results published in EP0395312B1, “Piperazine derivatives” (JOHN WYETH & BROTHER LIMITED, priority 1989, dated 1990).
pIC50: −log10 of the molar value. For at least one compound, name, drawing or mass did not settle the structure.

Test system: α1 sites
Test: Affinity for α1 sites (procedure of Morrow et al)
Format: binding
Conditions: read-out: Affinity for α1 site IC50

COc1ccccc1N1CCN(CC(C(=O)NC2CCCCC2)c2ccccc2)CC1 (stereo not shown) [Example 19]
pIC50: 6.01
